Laboratory results as given in PubChem BioAssay AID504449 (Broad Institute, 2011).
The shares of active, inactive and inconclusive entries below differ from those in the screen. The source made the active and inactive calls.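 The calls were made as follows: active = compounds lowering viability signal with fitted half-maximal potency within ten times the top dose, in every repeat run; inconclusive = repeat runs disagree, or weak flat or poorly fitted curves; inactive = every run inactive, including flat or rising signals.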

Assay: breast CSC-like cell growth inhibition – CellTiter-Glo luminescence, powder samples, set 4, dose response (AID 504449)
Conditions: HMLE_shECad breast CSC viability, 72 h; at 30 µM (top of the series)
Outline: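 assay system = HMLE_shECad cells, E-cadherin knockdown, EMT-induced breast cancer stem cell model | medium = serum-free CSC medium | compound = 100 nL pinned compound | times = ≥4 h cell settling at 37 °C, ~70-74 h compound exposure | technique = CellTiter-Glo luminescence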

Row | SMILES | activity change, negative = inhibition
1 | Cc1cccc(C)c1OCC(=O)N/N=C/c1ccc[nH]1 | inconclusive: -1.87%
2 | CN1CCN(C(=O)c2ccc(COc3ccccc3)o2)CC1 | inconclusive: 14.8%
3 | O=C(NC1=NCCS1)C1CC1c1ccccc1 (centres undefined) | inconclusive: -12.4%
4 | Cc1ccc2cc(C(=O)NC3=NCCS3)n(C)c2c1 | inactive: -17.3%
5 | COc1ccccc1/C=C/C(=O)NC1=NCCS1 | inconclusive: -15.4%
6 | O=C(/C=C/c1ccc(Cl)cc1)NC1=NCCS1 | inconclusive: -20%
7 | O=C(NCc1nccs1)c1ccc(COc2ccccc2)o1 | inconclusive: -31.6%
8 | O=C(N/N=C/c1ccn[nH]1)c1cc2ccccc2o1 | inactive: 26.2%
9 | Cc1csc(NC(=O)c2ccc(CO)o2)n1 | inactive: -1.83%
10 | O=C(COc1c(Cl)cc(Cl)cc1Cl)N/N=C/c1ccn[nH]1 | inactive: 6.67%
11 | C/C(=C\c1ccccc1)C(=O)NC1=NCCS1 | inactive: 8.28%
12 | Cc1cnc(NC(=O)c2ccc(COc3ccccc3)o2)s1 | inconclusive: -71.3%
13 | CC(C)(C)c1ccc(/C=C/C(=O)NC2=NCCS2)cc1 | inconclusive: -5.16%
14 | CC(C)c1ccc(/C=C/C(=O)NCc2ccccc2)cc1 | inactive: -6.44%

A second format for two compounds above.
Row,SMILES,"activity change, negative = inhibition"
6,O=C(/C=C/c1ccc(Cl)cc1)NC1=NCCS1,inconclusive: -20%
10,O=C(COc1c(Cl)cc(Cl)cc1Cl)N/N=C/c1ccn[nH]1,inactive: 6.67%
